Experimental data published in PubChem BioAssay AID2685 (National Center for Advancing Translational Sciences (NCATS), 2010).
The whole screen tested about 320,000 compounds, of which about 2,100 (0.66%) were called active. The shares of active, inactive and inconclusive entries below differ from those in the screen. The call rests on the fitted dose curve; in most records, active means well fitted inhibition curve with a large enough effect in the signal ratio, with a control signal flat (not every such curve was filed as active); inconclusive means small, poorly fitted or top-dose-only effect, or effect the other way, or a change in a side signal; inactive means flat fitted curve, though single readings scatter; the % refers to the signal ratio. A potency beside an inconclusive call is a rough fit, not a confirmed value.

Experiment: qHTS Assay for Lipid Storage Modulators in Drosophila S3 Cells
Details: BODIPY lipid droplet fluorescence, 18-24 h, cells fed with added oleic acid; lipid storage change, negative = inhibition: at 46.1 µM (top of the series) unless noted
How it was run: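 Drosophila S3 cells got compounds at several concentrations plus oleic acid (400 uM solution). Laser-scanning cytometry with 488 nm excitation read lipid droplets at 500-530 nm and cells at 575-640 nm. Percent activity was relative to 20 uM Triacsin C.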
On the % scale 0 is the no-effect control and ±100 the full control effect; potency means the concentration at half of the fitted maximal effect.

Row | SMILES | lipid storage change, negative = inhibition | Potency | outcome
1 | Nc1nnc(SCC(=O)Nc2cccc3ccccc23)s1 | inconclusive: -6.58% |  | 
2 | Cc1cc(/C=C2\SC(=O)N(C)C2=O)c(C)n1-c1ccc(S(N)(=O)=O)cc1 | inconclusive: 79.8% |  | 
3 | CCc1c(C)c(C#N)c2nc3ccccc3n2c1NCCN(C)C |  | inconclusive: 6.51 µM [rising, single point] | 
4 | Fc1cccc(CSc2ccc3nnc(-c4ccccn4)n3n2)c1 | inconclusive: -4.25% [at 9.22 µM] |  | 
5 | CCCn1c(O)c(N=NC(=O)CNC(=O)c2ccncc2)c2ccccc21 |  | inconclusive: 29.1 µM [falling, single point] | 
6 | O=C(COc1ccc2c3c(c(=O)oc2c1)CCCC3)N1CCN(c2ccccc2)CC1 |  | inconclusive: 0.651 µM [falling, partial curve, poor fit] | 
7 | CCOc1ccccc1C(=O)N1CCN=C1SC | inconclusive: 40.8% |  | 
8 | COc1cc(S(=O)(=O)N2CCOCC2)ccc1NC(=O)CSc1nnc(N)s1 |  | inconclusive: 1.84 µM [activator, partial curve] | 
9 | COc1ccc(OC)c(/C=C/C(=O)c2ccc3c(c2)OCCO3)c1 |  | inconclusive: 29.1 µM [falling, single point] | 
10 | O=[N+]([O-])c1ccc(OCCOc2ccccc2/C=N/n2cnnc2)cc1 | inconclusive: 3.5% |  | 
11 | Cc1cc(C)nc(NS(=O)(=O)c2ccc(NC(=O)CN3C(=O)C4CC=CCC4C3=O)cc2)n1 (stereo not drawn) |  | inconclusive: 0.651 µM [falling, single point] | 
12 | O=C(COc1ccc(Cl)cc1)NCCNC(=O)c1ccccn1 | inconclusive: 148% |  | 
13 | Oc1ccc(-c2csc(-c3cccnc3)n2)cc1O |  |  | inactive [at 46.1 µM]
14 | COc1ccc(-c2csc3ncnc(N4CCN(S(=O)(=O)c5ccccc5C#N)CC4)c23)cc1 |  | active: 7.31 µM | 
15 | C=CCOc1ccc(-c2nc3c(c(=O)[nH]c(=O)n3CCCC)n2C)cc1Br | inactive: -0.288% |  | 
16 | COc1ccc(CN(C)C(=O)c2cccc(Oc3ccccc3)c2)c(OC)c1OC |  | inconclusive: 29.1 µM [activator, single point] | 
17 | CCc1c(C2(O)CCCCC2)[nH]c2ncccc12 |  | inconclusive: 0.082 µM [falling, single point] | 
18 | CN1C(=S)SC(C)(NO)C1(C)C (stereo not drawn) |  | active: 5.17 µM | 
19 | CCOC(=O)c1nc(C)sc1-c1ccnn1S(=O)(=O)c1ccccc1C(F)(F)F | inconclusive: 8.16% |  | 

Row | SMILES | lipid storage change, negative = inhibition | Potency | outcome
20 | O=C(Nc1cc(Cl)cc(Cl)c1)C1CCC(=O)N1Cc1ccccc1Cl (stereo not drawn) |  | inconclusive: 18.4 µM [cytotoxic, partial curve] | 
21 | COc1cc(/C=C(\C#N)C(=O)NCc2cccs2)ccc1O | inactive: -8.42% |  | 
22 | Cc1ncc(CO)c2c1Oc1nc(-c3ccccc3)nc(SCC(=O)Nc3cccc(O)c3)c1C2 | inconclusive: -188% |  | 
23 | CCN(CC)S(=O)(=O)c1ccc(S(=O)(=O)Nc2ccc3c(c2)oc2ccccc23)cc1 |  | inconclusive: 23.1 µM [activator, single point] | 
24 | Cc1ccc(/C=N/NC(=O)c2cccs2)s1 | inconclusive: 6% |  | 
25 | Cc1cc(F)ccc1S(=O)(=O)N1CCCOC1CNC(=O)C(=O)NCc1ccncc1 (stereo not drawn) | inconclusive: 100% |  | 
26 | c1ccc(CNC23CC4CC(CC(C4)C2)C3)nc1 | inconclusive: -51.7% |  | 
27 | O=[N+]([O-])c1ccc2[nH]cc(S(=O)(=O)N3CCN(c4cccc(Cl)c4)CC3)c2c1 |  | inconclusive: 0.517 µM [falling, full curve] | 
28 | C(=N\N1CCN(Cc2cccc3ccccc23)CC1)/c1ccco1 | inconclusive: 6.71% |  | 
29 | C/C(=N\NC(=O)c1cc(C2CC2)nc2ccccc12)c1ccc(O)cc1O | inconclusive: -16.3% |  | 
30 | COc1ccc(Cl)cc1NC(=O)C1CC(c2c(F)cccc2Cl)=NO1 (stereo not drawn) | inconclusive: -22.6% |  | 
31 | O=C(CSC1=NS(=O)(=O)c2cc(F)ccc2N1)Nc1ccc(F)cc1 | inconclusive |  | 
32 | CCN(CC)CCN1C(=O)C(=O)/C(=C(/O)c2c(C)[nH]c(C(=O)OC)c2C)C1c1ccc(OC)cc1 (stereo not drawn) | inconclusive: -32.8% |  | 
33 | Cc1cccc(NC(=O)c2ccc(OCC3CCCO3)cc2)c1C (stereo not drawn) |  | inconclusive: 3.66 µM [falling, full curve] | 
34 | Cc1[nH][nH]c(=O)c1C(c1ccc(-c2ccc(Cl)cc2)o1)c1c(C)[nH][nH]c1=O |  | inconclusive: 13 µM [activator, partial curve] | 
35 | CNC(=O)/C=C1\NC(C)(C)Cc2c1ccc1ccccc21 | inconclusive: 89.8% |  | 
36 | CN(CC(=O)Nc1ccc(N2CCOCC2)cc1)C(=O)C12CC3CC(CC(C3)C1)C2 | inactive: -1.21% |  | 
37 | Cc1cccc(NC(=O)c2ccc(-c3ccccc3[N+](=O)[O-])o2)c1 | inactive: 3.52% |  | 
38 | CCCN(CCC)CC(O)Cn1cc(/C=C/C(=O)c2cccs2)c2ccccc21 (stereo not drawn) |  | inconclusive: 29.1 µM [falling, single point] | 

In the list so far, 3 contain a nitro group on carbon.
Row | SMILES | lipid storage change, negative = inhibition | Potency | outcome
10 | O=[N+]([O-])c1ccc(OCCOc2ccccc2/C=N/n2cnnc2)cc1 | inconclusive: 3.5% |  | 
27 | O=[N+]([O-])c1ccc2[nH]cc(S(=O)(=O)N3CCN(c4cccc(Cl)c4)CC3)c2c1 |  | inconclusive: 0.517 µM [falling, full curve] | 
37 | Cc1cccc(NC(=O)c2ccc(-c3ccccc3[N+](=O)[O-])o2)c1 | inactive: 3.52% |  | 
